The values that follow come from patent US4818748A (Bayer Aktiengesellschaft, priority 1986, dated 1989).

This data set can be described thus: general procedure: solution-phase peptide synthesis; DCC/HOBT; propane-phosphonic acid anhydride. As to conditions: late stage modification step; run 1.

In the case of “N-Benzyloxycarbonyl-L-phenylalanyl-L-histidyl-4S-amino-3S-hydroxy-5-(4-nitrophenyl)pentanoyl-L-isoleucine methyl ester”, the step yield is given as 15% of theory.
